Structures were worked out from names or drawings and are uncertain.

The chains behind the UniProt entries cited, without tags or fusion partners.
UniProt Q9Y2I7, whole entry: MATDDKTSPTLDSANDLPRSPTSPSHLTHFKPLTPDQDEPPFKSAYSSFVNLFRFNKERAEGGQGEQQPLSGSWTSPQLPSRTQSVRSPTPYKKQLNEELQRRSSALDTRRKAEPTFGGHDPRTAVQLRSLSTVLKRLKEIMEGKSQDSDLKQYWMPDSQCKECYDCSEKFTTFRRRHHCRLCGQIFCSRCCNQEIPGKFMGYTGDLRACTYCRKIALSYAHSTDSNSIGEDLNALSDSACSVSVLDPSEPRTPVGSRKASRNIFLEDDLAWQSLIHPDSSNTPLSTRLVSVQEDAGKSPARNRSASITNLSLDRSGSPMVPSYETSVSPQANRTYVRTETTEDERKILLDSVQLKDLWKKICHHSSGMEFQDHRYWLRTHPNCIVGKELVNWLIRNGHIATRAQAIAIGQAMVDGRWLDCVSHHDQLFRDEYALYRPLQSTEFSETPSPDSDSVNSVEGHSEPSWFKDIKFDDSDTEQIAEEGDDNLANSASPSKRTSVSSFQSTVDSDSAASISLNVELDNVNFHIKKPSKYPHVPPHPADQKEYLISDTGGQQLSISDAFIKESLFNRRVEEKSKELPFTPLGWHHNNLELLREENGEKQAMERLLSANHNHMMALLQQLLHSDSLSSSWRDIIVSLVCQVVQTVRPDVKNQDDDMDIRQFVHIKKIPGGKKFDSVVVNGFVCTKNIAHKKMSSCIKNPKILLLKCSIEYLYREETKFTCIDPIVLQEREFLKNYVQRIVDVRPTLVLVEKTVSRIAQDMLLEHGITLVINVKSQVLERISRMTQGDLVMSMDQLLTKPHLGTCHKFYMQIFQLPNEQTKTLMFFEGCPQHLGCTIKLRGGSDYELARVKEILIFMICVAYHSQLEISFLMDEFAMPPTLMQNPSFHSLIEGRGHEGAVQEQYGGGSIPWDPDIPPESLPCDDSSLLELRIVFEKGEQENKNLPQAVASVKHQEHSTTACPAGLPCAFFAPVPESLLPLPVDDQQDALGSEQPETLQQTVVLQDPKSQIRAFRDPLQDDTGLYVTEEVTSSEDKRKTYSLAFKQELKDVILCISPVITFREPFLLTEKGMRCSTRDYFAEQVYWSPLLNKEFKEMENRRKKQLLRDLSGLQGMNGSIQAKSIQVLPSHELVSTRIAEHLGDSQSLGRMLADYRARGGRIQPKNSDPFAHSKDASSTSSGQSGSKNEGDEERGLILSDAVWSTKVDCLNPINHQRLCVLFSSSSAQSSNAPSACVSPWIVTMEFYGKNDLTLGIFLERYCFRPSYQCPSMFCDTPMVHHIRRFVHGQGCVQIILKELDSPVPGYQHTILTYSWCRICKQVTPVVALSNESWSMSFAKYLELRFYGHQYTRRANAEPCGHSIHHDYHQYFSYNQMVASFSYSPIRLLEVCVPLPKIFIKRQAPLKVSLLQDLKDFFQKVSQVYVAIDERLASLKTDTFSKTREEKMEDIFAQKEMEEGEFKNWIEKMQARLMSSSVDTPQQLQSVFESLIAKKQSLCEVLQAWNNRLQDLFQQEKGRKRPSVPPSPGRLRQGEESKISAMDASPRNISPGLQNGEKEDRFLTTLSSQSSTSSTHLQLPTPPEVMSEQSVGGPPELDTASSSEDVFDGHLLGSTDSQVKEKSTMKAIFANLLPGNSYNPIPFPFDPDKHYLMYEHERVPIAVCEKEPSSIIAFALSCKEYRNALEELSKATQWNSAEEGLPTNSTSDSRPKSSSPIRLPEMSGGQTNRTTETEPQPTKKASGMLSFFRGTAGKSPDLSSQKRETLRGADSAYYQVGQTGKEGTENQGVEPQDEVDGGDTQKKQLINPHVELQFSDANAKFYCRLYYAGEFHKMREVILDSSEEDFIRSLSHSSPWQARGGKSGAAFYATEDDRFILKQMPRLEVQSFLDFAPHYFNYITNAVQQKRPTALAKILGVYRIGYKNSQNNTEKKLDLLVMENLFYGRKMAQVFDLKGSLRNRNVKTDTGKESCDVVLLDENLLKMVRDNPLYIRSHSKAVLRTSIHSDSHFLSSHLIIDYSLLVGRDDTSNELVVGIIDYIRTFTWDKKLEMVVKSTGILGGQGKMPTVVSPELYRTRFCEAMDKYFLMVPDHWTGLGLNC

The target of this assay is PIKfyve (Homo sapiens, UniProt Q9Y2I7). The experiment in a line: Degradation of PIKfyve proteins in VCaP tumor cells (24 h, Western blot). The conditions noted are these: read-out: DC50 (concentration that achieves 50% degradation activity), 37° C., compared with DMSO control, WB. As to the method:
Method: 200 μL of cells at a density of 5×10^6 cells/ml were inoculated into a 6-well plate, and then different concentrations of drugs were added. The cells were treated at 37° C. for 24 h. The […] was collected and washed with PBS twice. Then, 100-200 μL of 1×SDS lysate was added, and the cell lysate was collected into a centrifuge tube. The cells were disrupted ultrasonically for 10-20 sec, and boiled for 10 min. Protein samples were subjected to SDS-PAGE electrophoresis at a voltage of 90 V, transferred to PVDF membranes at 110 V, blocked with 5% BSA for 4 h, incubated with primary antibodies (PIKfyve, GAPDH) at 4° C. overnight, and incubated with secondary antibodies (anti-Rabbit IgG or anti-Mouse IgG) at room temperature. The membranes were washed with TBST buffer, developed with an ECL developing solution, and then imaged to obtain protein band signals, with single-concentration WB results as shown in FIG. 1. Compared with the DMSO control group, the concentration that achieves 50% degradation activity is defined as DC50.
On the technique in general: Immunoblotting shows a protein as a band on a membrane.

For `Cc1cccc(/C=N/Nc2cc(N3CCOCC3)nc(OCCc3ccc(NC(=O)CCCCCNC(=O)COc4cc(-c5scnc5C)ccc4CNC(=O)[C@@H]4C[C@@H](O)CN4C(=O)[C@@H](NC(=O)C4(F)CC4)C(C)(C)C)cc3)n2)c1`, the DC50 lay in the range of 0.001 to 0.1 µM.

The record behind these values is patent publication US20260317299A1, “PIKFYVE PROTEIN KINASE DEGRADATION AGENT AND USE THEREOF” (Shanghai Institute of Organic Chemistry, Chinese Academy of …, priority 2023, published 2026).
